Source: patent US20240082277A1, “MODIFIED ANTIHISTAMINE COMPOSITION AND ANTIVIRAL TREATMENT” (priority 2022, published 2024)
Where a name gives a salt, the structure may show the parent alone.

System: SARS-CoV-2 Delta (B.1.617.2)
Test: microbe, parasite or virus in culture
Conditions: Severe acute respiratory syndrome coronavirus 2, VeroE6/TMPRSS2, read-out: Efficacy (EC50) Delta

CN(C)CCOC(c1ccccc1)c1ccccc1 [Diphenhydramine hydrochloride]
EC50: > 1000 µg/mL
